Laboratory results: patent US20240182531A1, “KV1.3 Blockers” (priority 2021, published 2024)
Some of these results come from one statement about several compounds together. Where a SMILES comes first, the peptide text is derived from it. Bridges are numbered along the chain shown (N, C = ends). [ ]: non-standard residue; d: D form. Agp = N=C(N)NC[C@H](N)C(=O)O; Nle = CCCC[C@H](N)C(=O)O; Orn = NCCC[C@H](N)C(=O)O; Dab = NCC[C@H](N)C(=O)O

Protein sequences, listed by entry. Tags and fused reporters are not part of them.
UniProt P22001, whole entry: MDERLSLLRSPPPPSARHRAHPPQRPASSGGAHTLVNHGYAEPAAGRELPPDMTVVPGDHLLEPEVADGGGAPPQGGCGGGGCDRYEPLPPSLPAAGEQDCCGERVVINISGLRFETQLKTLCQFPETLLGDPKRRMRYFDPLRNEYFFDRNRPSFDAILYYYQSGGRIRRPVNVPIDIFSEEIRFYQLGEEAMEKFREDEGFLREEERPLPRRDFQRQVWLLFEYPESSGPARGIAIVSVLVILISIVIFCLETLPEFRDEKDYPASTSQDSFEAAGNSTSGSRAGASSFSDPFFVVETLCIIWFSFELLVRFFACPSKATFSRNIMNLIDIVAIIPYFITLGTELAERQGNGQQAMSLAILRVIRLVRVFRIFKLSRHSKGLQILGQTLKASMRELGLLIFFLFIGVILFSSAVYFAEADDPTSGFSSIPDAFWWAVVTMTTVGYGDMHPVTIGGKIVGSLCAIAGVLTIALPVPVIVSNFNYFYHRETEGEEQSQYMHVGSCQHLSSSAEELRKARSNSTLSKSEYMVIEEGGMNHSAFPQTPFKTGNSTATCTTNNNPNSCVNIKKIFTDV

Experiments:
[1] = molecular target: T1, human Kv1.3 voltage-gated K+ channel (Homo sapiens, UniProt P22001); experiment: Kv1.3 blocker activity in FLIPR thallium assay; type: cell-based; settings: thallium flux, CHO-DUKX cells expressing human Kv1.3, n≥2
T1 construct: host or cells: CHO-DUKX
Method: A human Kv1.3 voltage-gated K+ channel cell line was purchased from Perkin Elmer (#TDS-AX-010-C-1). The cell line is based on CHO-DUKX cells stably transfected with the human Kv1.3 voltage-gated K+ channel.
The cell line was grown in MEMα with nucleotides, GlutaMAX (Gibco #32571028), 10% Foetal Bovine Serum (FBS), 0.4 mg/ml Geneticin, 100 units/ml Penicillin, and 100 μg/ml Streptomycin and seeded at 10.000 cells/well in black poly-D-lysine-coated 96 well plates.
The FluxOR™ Potassium Ion Channel Assay (Invitrogen #F10016) was used to quantitate flux of thallium ions into the cells as a response to Kv1.3 activation with a stimulus buffer causes depolarization of the cell membrane, thereby generating a fluorescent signal, proportional to channel activity. The assay was performed as described by the assay kit manufacturer including a compound pre-incubation step (30 min, 37° C., 5% CO2) in assay buffer containing 0.02% W/v casein from bovine milk (Sigma #C4765) prior to cell membrane depolarization using a final stimuli buffer composition corresponding to 0.2× FluxOR™ chloride-free buffer, 5 mM K2SO4, 1 mM Tl2SO4. The fluorescence responses were recorded and quantified (maximum response at 50 s, 37° C.) using the FLIPR® Tetra High Throughput Screening System (Molecular Devices, Inc.).
IC50 can be regarded as a measure of potency of inhibition for the respective compound. […]

human Kv1.3 = molecular target: T2, human Kv1.3 (Homo sapiens, UniProt P22001); type: cell-based; settings: patch clamp, selectivity for Kv1.3
T2 construct: expressed in transfected cells; host or cells: CHO

| Compound | IC50 [1] | selectivity ratios towards Kv1.1, Kv1.2, and Kv1.6 (human Kv1.3) |
| --- | --- | --- |
| CCCC[C@H](NC(=O)[C@@H]1CCCN1)C(=O)N[C@@H](CCC(=O)O)C(=O)N[C@@H](CCCC)C(=O)N[C@@H](CCCNC(=N)N)C(=O)N[C@H]1CSSC[C@@H]2NC(=O)[C@H](CCCCN)NC(=O)CNC(=O)[C@H](Cc3ccccc3)NC(=O)[C@H]([C@@H](C)CC)NC(=O)[C@H](CO)NC(=O)CNC(=O)[C@H]([C@@H](C)CC)NC(=O)[C@H](C)NC(=O)[C@H](C)NC(=O)[C@H](CC(C)C)NC(=O)[C@@H]3CSSC[C@@H](C(=O)N[C@@H](Cc4ccc(O)cc4)C(=O)N4CCC[C@H]4C(=O)N[C@@H](CCCNC(=N)N)C(=O)O)NC(=O)[C@H](CCCCN)NC(=O)[C@H](CSSC[C@H](NC(=O)[C@H](CCC(=O)O)NC(=O)[C@H](C(C)C)NC(=O)[C@H](CCCN)NC(=O)[C@H](C)NC(=O)[C@H](CO)NC1=O)C(=O)N[C@@H](CCCCN)C(=O)N[C@@H](CCC(N)=O)C(=O)N[C@@H](CCCCN)C(=O)N3)NC(=O)[C@H](CCCCN)NC(=O)[C@H](CCCCN)NC(=O)[C@H](CC(N)=O)NC(=O)[C@H](CCCC)NC2=O [compound 6] (H-P[Nle]E[Nle]RCSA[Orn]VECKQKCLAAIGSIFGKC[Nle]NKKCKCYPR-OH; disulfide 6-27, 12-32, 16-34) | ≤ 50 nM | – |
| CCCC[C@H](NC(=O)[C@@H]1CCCN1)C(=O)N[C@@H](CCC(=O)O)C(=O)N[C@@H](CCCC)C(=O)N[C@@H](CCCNC(=N)N)C(=O)N[C@H]1CSSC[C@@H]2NC(=O)[C@H](CCCCN)NC(=O)CNC(=O)[C@H](Cc3ccccc3)NC(=O)[C@H]([C@@H](C)CC)NC(=O)[C@H](CO)NC(=O)CNC(=O)[C@H]([C@@H](C)CC)NC(=O)[C@H](C)NC(=O)[C@H](C)NC(=O)[C@H](CC(C)C)NC(=O)[C@@H]3CSSC[C@@H](C(=O)N[C@@H](Cc4ccc(O)cc4)C(=O)N4CCC[C@H]4C(=O)N[C@@H](CCCNC(=N)N)C(=O)O)NC(=O)[C@H](CCCCN)NC(=O)[C@H](CSSC[C@H](NC(=O)[C@H](CCC(=O)O)NC(=O)[C@H](C(C)C)NC(=O)[C@H](CO)NC(=O)[C@H](C)NC(=O)[C@H](CCN)NC1=O)C(=O)N[C@@H](CCCCN)C(=O)N[C@@H](CCC(N)=O)C(=O)N[C@@H](CCCCN)C(=O)N3)NC(=O)[C@H](CCCCN)NC(=O)[C@H](CCCCN)NC(=O)[C@H](CC(N)=O)NC(=O)[C@H](CCCC)NC2=O [Cpd No. 1] (H-P[Nle]E[Nle]RC[Dab]ASVECKQKCLAAIGSIFGKC[Nle]NKKCKCYPR-OH; disulfide 6-27, 12-32, 16-34) | – | ≥ 6000 |
| CCCC[C@H](NC(=O)[C@@H]1CCCN1)C(=O)N[C@@H](CCC(=O)O)C(=O)N[C@@H](CCCC)C(=O)N[C@@H](CCCNC(=N)N)C(=O)N[C@H]1CSSC[C@@H]2NC(=O)[C@H](CCCCN)NC(=O)CNC(=O)[C@H](Cc3ccccc3)NC(=O)[C@H]([C@@H](C)CC)NC(=O)[C@H](CO)NC(=O)CNC(=O)[C@H]([C@@H](C)CC)NC(=O)[C@H](C)NC(=O)[C@H](C)NC(=O)[C@H](CC(C)C)NC(=O)[C@@H]3CSSC[C@@H](C(=O)N[C@@H](Cc4ccc(O)cc4)C(=O)N4CCC[C@H]4C(=O)N[C@@H](CCCNC(=N)N)C(=O)O)NC(=O)[C@H](CCCCN)NC(=O)[C@H](CSSC[C@H](NC(=O)[C@H](CCC(=O)O)NC(=O)[C@H](C(C)C)NC(=O)[C@H](CO)NC(=O)[C@H](C)NC(=O)[C@H](CNC(=N)N)NC1=O)C(=O)N[C@@H](CCCCN)C(=O)N[C@@H](CCC(N)=O)C(=O)N[C@@H](CCCCN)C(=O)N3)NC(=O)[C@H](CCCCN)NC(=O)[C@H](CCCCN)NC(=O)[C@H](CC(N)=O)NC(=O)[C@H](CCCC)NC2=O [Cpd No. 3] (H-P[Nle]E[Nle]RC[Agp]ASVECKQKCLAAIGSIFGKC[Nle]NKKCKCYPR-OH; disulfide 6-27, 12-32, 16-34) | – | ≥ 6000 |
